From paper PMC7601862
These are yes or no findings as the source states them, for the method shown. In cells and extracts the contact can be indirect.

Experiments:
[1] = target: tumor suppressor p53 (human (endogenous in MESO924, MESO257, MESO428)) (UniProt P04637); assay: co-IP; 1 mg lysate of MESO924, MESO257 or MESO428 (1% NP-40 lysis buffer), preabsorbed with protein G beads; 2 ug p53 or AXL antibody 2 h at 4 °C, sepharose-protein G overnight at 4 °C; AXL and p53 immunoblotting; normal mouse IgG as control IP
[2] = target: AXL receptor tyrosine kinase (human (endogenous in MESO924, MESO257, MESO428)) (UniProt P30530); assay: as above

binding [1]	binding [2]	Substance
no binding	–	AXL receptor tyrosine kinase (from UniProt P30530-2 26-885)
–	no binding	tumor suppressor p53 (from UniProt P04637-1 1-393)
